The list does not hold the whole screen: it gathers tests that were run many times, whatever their T/C, doses with no T/C, and many T/C values between a quarter and a half above the control. Further doses and runs are listed elsewhere. T/C gives the treated animals as a percentage of the vehicle group. Some doses have a count of surviving animals in place of a T/C: the source files T/C as zero there, which appears to mark a toxic dose or a test without result, not a measured value. Some survivor counts are full or nearly so, which does not show that the dose was tolerated: the source hardly ever lists a survival T/C far under the control, and the zero likely stands for such cases as well. Counts of survivors are from the toxicity check (mostly the fifth day) where no day follows; animals may have died later. Schedule codes are those of the source, taken here to give the interval after Q, in days (D) or hours (H), and the number of doses after X. Where survival is the endpoint, the PubChem record calls one and a half times the control and up active, and a quarter to a half above the control has no call in these data; cut-offs in other NCI protocols can differ. Some entries were tested several times; their values stand side by side, smallest first.

The results in this text go back to PubChem BioAssay AID330 (DTP/NCI, 2004).

This assay relates to P388 leukemia ip, CD2F1 mice, survival T/C. Briefly: NCI In Vivo Anticancer Drug Screen. Data for tumor model P388 Leukemia (intraperitoneal) in CD2F1 (CDF1) mice. The conditions noted are these: T/C endpoint: median survival time, higher T/C = longer survival.
Setting [1] is: dose: 200.0 mg/kg/injection, schedule: Q01DX005 (ip), vehicle: Klucel (hydroxypropylcellulose) (HPC).
Setting [2] is: dose: 200.0 mg/kg/injection, schedule: Q01DX009 (ip), vehicle: saline.
Setting [3] is: dose: 50.0 mg/kg/injection, schedule: Q01DX009 (ip), vehicle: saline with Tween-80.
Where [4] appears, read: dose: 200.0 mg/kg/injection, schedule: Q01DX005 (ip), vehicle: saline.
Where [5] appears, read: dose: 400.0 mg/kg/injection, schedule: Q04DX002 (ip), vehicle: saline with Tween-80.
Setting [6] is: dose: 100.0 mg/kg/injection, schedule: Q04DX003 (ip), vehicle: saline with Tween-80.
Setting [7] is: dose: 200.0 mg/kg/injection, schedule: Q04DX003 (ip), vehicle: saline with Tween-80.
The mark [8] stands for this setting: dose: 400.0 mg/kg/injection, schedule: Q04DX003 (ip), vehicle: saline with Tween-80.
[9] abbreviates: dose: 200.0 mg/kg/injection, schedule: Q01DX005 (ip), vehicle: saline with Tween-80.

Turning to `CN(C)c1ncnc2c1ncn2[C@H]1CCC[C@@H]1O`, the survivor count by setting is: (dose: 3.0 mg/kg/injection, schedule: Q01DX005 (ip), vehicle: Klucel (hydroxypropylcellulose) (HPC)) 4 of 6; (dose: 6.0 mg/kg/injection, schedule: Q01DX005 (ip), vehicle: Klucel (hydroxypropylcellulose) (HPC)) 1 of 6; (dose: 6.25 mg/kg/injection, schedule: Q01DX005 (ip), vehicle: Klucel (hydroxypropylcellulose) (HPC)) 3 of 3; (dose: 12.5 mg/kg/injection, schedule: Q01DX005 (ip), vehicle: Klucel (hydroxypropylcellulose) (HPC)) 2 of 6; (dose: 25.0 mg/kg/injection, schedule: Q01DX005 (ip), vehicle: Klucel (hydroxypropylcellulose) (HPC)) 0 of 6; (dose: 50.0 mg/kg/injection, schedule: Q01DX005 (ip), vehicle: Klucel (hydroxypropylcellulose) (HPC)) 0 of 5. Further, the survivor count runs as follows: (dose: 100.0 mg/kg/injection, schedule: Q01DX005 (ip), vehicle: Klucel (hydroxypropylcellulose) (HPC)) 0 of 5; under setting [1], 0 of 5.
With `CCCCCCCCCCCC[N+]1(CC)CCCCCC1`, the survivor count is, setting by setting: (dose: 3.12 mg/kg/injection, schedule: Q01DX009 (ip), vehicle: saline) 5 of 6; (dose: 6.25 mg/kg/injection, schedule: Q01DX009 (ip), vehicle: saline) 2 of 6; (dose: 12.5 mg/kg/injection, schedule: Q01DX009 (ip), vehicle: saline) 0 of 6; (dose: 50.0 mg/kg/injection, schedule: Q01DX009 (ip), vehicle: saline) 0 of 6; (dose: 100.0 mg/kg/injection, schedule: Q01DX009 (ip), vehicle: saline) 0 of 6; under setting [2], 0 of 6.
With `CC1COC2(CC1OC(=O)/C=C/c1ccccc1)OC1CC(C(=O)OC3OC(C)C(O)C(O)C3OC3OC(C)C(O)C(O)C3O)CCC1C21CO1` (stereo unspecified), the T/C is 134 % of control (dose: 15.0 mg/kg/injection, schedule: Q01DX005 (ip), vehicle: saline + alcohol); 140 and 147 % of control (dose: 30.0 mg/kg/injection, schedule: Q01DX005 (ip), vehicle: saline + alcohol).
In the case of `Clc1ccc2nc(CBr)cnc2c1`, the survivor count under setting [3] is 5 of 6.
On to `CCCCCCCCCCCCCCCC[N+]1(CC)CCOCC1` (tested in a mixture with another compound), for which, where the note is “dose: 25.0 mg/kg/injection, schedule: Q01DX009 (ip), vehicle: Klucel (hydroxypropylcellulose) (HPC)”, the survivor count is 6 of 6.
Take `CCCCCN(CCCCC)CCCNc1c2c(nc3ccc(OC)cc13)CCCC2`: the survivor count is reported as 0 of 5 (dose: 50.0 mg/kg/injection, schedule: Q01DX005 (ip), vehicle: saline); 0 of 5 (dose: 100.0 mg/kg/injection, schedule: Q01DX005 (ip), vehicle: saline); 0 of 5 under setting [4].
As to `CN(C)CCC(=O)c1ccc(C(=O)CCN(C)C)cc1`, the survivor count under setting [4] is 2 of 6.
`CC(C)(C)/C(O)=C/c1nc2ccc(Cl)cc2[nH]c1=O`: the survivor count was 5 of 5 (dose: 60.0 mg/kg/injection, schedule: Q01DX005 (ip), vehicle: Klucel + Tween-80) and 6 of 6 (dose: 120.0 mg/kg/injection, schedule: Q01DX005 (ip), vehicle: Klucel + Tween-80).
In the case of `C=Cn1c([N+](=O)[O-])cnc1/C=C/c1ccc(C(=O)OCCN2CCOCC2)cc1`, the survivor count is, setting by setting: (dose: 200.0 mg/kg/injection, schedule: Q04DX002 (ip), vehicle: saline with Tween-80) 6 of 6; under setting [5], 6 of 6.
In the case of `O=C1C(Br)=CC2C1C1C=CC2(Br)C1=O` (stereo unspecified), the survivor count (dose: 240.0 mg/kg/injection, schedule: Q01DX005 (ip), vehicle: saline with Tween-80) is 0 of 6.
For the compound `c1ccc2c(c1)ccc1ncc3ncccc3c12`, under setting [5], the survivor count is reported as 1 of 6.
Turning to `C=C1C(=O)O[C@H]2CC(C)C3C[C@@H](O)OC(O)[C@]3(C)C[C@@H]12` (stereo partly specified), the survivor count (dose: 19.0 mg/kg/injection, schedule: Q01DX005 (ip), vehicle: Klucel (hydroxypropylcellulose) (HPC)) was 4 of 6.
Take `Cc1nc(N)c(Cn2ccc(=O)n(Cc3c[n+](C)c(C)nc3N)c2=O)c[n+]1C`: the survivor count by setting is: (dose: 100.0 mg/kg/injection, schedule: Q01DX001 (ip), vehicle: saline) 0 of 6; (dose: 200.0 mg/kg/injection, schedule: Q01DX001 (ip), vehicle: saline) 0 of 6; (dose: 400.0 mg/kg/injection, schedule: Q01DX001 (ip), vehicle: saline) 0 of 6.
For the compound `CC1CN2CC(C)O[Si](CC[Si](C)(C)C)(O1)OC(C)C2` (stereo unspecified), the survivor count under setting [1] is on record as 5 of 6.
As for `CN=S(=O)(OCCCCOS(=O)(=NC)c1ccc(C)cc1)c1ccc(C)cc1` (stereo unspecified), the T/C under setting [6] is 125 % of control, the T/C under setting [7] was 126 % of control and the T/C under setting [8] was 131 % of control.
With `Cc1ccc(NC(=O)Oc2ccc(Cl)c(C)c2)c([N+](=O)[O-])c1`, under setting [3], the survivor count is given as 6 of 6.
`CC(C)(C)c1cc(C(C)(C)C)c2oc(C(=O)O)cc(=O)c2c1`: the survivor count under setting [2] is given as 0 of 6.
With `CN1CNC(=O)c2n[nH]nc21`, the survivor count is listed as 0 of 6 (dose: 100.0 mg/kg/injection, schedule: Q04DX002 (ip), vehicle: Klucel (hydroxypropylcellulose) (HPC)) and 0 of 6 (dose: 200.0 mg/kg/injection, schedule: Q04DX002 (ip), vehicle: Klucel (hydroxypropylcellulose) (HPC)).
As to `CCOC(=O)C1C/C(=N\OS(=O)(=O)c2ccc(C)cc2)c2ccc(OC)c(OC)c2C1` (stereo unspecified), the survivor count (dose: 200.0 mg/kg/injection, schedule: Q01DX009 (ip), vehicle: other) is given as 5 of 6.
With `S=c1nc(N2CCOCC2)n(/C=C/c2ccccc2)c(=S)n1C(=N/C=C/c1ccccc1)N1CCOCC1`, the survivor count under setting [7] is 6 of 6.
`O=C(CC(=O)C(F)(F)C(F)(F)C(F)(F)F)c1csc2ccccc12`: the survivor count under setting [7] is on record as 6 of 6 and the survivor count under setting [8] was 4 of 6.
As for `NCCCO[C@H]1CO[C@H]2[C@@H]1OC[C@H]2OCCCN`, under setting [4], the survivor count is on record as 0 of 6.
Turning to `CC(C)(C)NSc1nc2ccccc2s1`, the survivor count is 5 of 6 under setting [6] and 0 of 6 under setting [7].
As to `CCCCCCCCCCCC[N+](C)(CCS(=O)(=O)[O-])Cc1ccccc1` (stereo unspecified), where the note is “dose: 50.0 mg/kg/injection, schedule: Q01DX005 (ip), vehicle: saline with Tween-80”, the T/C was 137 % of control. For the same compound, under setting [9], the survivor count is given as 2 of 6.
On to `CCCCCCCCCCCCCCCCC(C(=O)O)C(O)(CC(=O)O)C(=O)O` (stereo unspecified), for which the survivor count is recorded as 0 of 3 (dose: 200.0 mg/kg/injection, schedule: Q01DX009 (ip), vehicle: saline with Tween-80) and 0 of 3 (dose: 400.0 mg/kg/injection, schedule: Q01DX009 (ip), vehicle: saline with Tween-80).
With `CC(NNC(=S)N(C)C1CCCCC1)c1cc2ccccc2cn1` (stereo unspecified), the T/C (dose: 25.0 mg/kg/injection, schedule: Q01DX005 (ip), vehicle: saline with Tween-80) was 137 % of control. Further, the survivor count reads like this: (dose: 100.0 mg/kg/injection, schedule: Q01DX005 (ip), vehicle: saline with Tween-80) 6 of 6; under setting [9], 0 of 6.
On to `N#CCc1ccccc1Br`, for which the survivor count under setting [9] is on record as 0 of 5.
As for `CCOC(=O)Nc1cc2c(c(N)n1)N=C(c1ccc(C)cc1C)CN2`, the T/C runs as follows: (dose: 10.0 mg/kg/injection, schedule: Q01DX005 (ip), vehicle: saline with Tween-80) 131 % of control; (dose: 13.0 mg/kg/injection, schedule: Q01DX005 (ip), vehicle: saline with Tween-80) 134 % of control; (dose: 20.0 mg/kg/injection, schedule: Q01DX005 (ip), vehicle: saline with Tween-80) 136 % of control; (dose: 30.0 mg/kg/injection, schedule: Q01DX005 (ip), vehicle: saline with Tween-80) 145 % of control.
Regarding `CC1CC23C4CCCN2CC2OC2C13C1CC4OC1=O` (stereo unspecified), the survivor count (dose: 200.0 mg/kg/injection, schedule: Q01DX009 (ip), vehicle: Klucel (hydroxypropylcellulose) (HPC)) is given as 0 of 6.
`COc1ccc(/C=N/N2CN(C(C)C(=O)O)B(NCCC(C)C)N=C2N)cc1OC` (stereo unspecified): the survivor count (dose: 240.0 mg/kg/injection, schedule: Q01DX005 (ip), vehicle: saline) is reported as 2 of 6.
